Experimental data: PubChem BioAssay AID1224830 (NIAID, 2016)

Screen: 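Genes whose knock-down alters the TNF-alpha reporter response to LPS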 (primary screen)
System: human THP-1 monocytic leukaemia cells, TNF dual-luciferase reporter clone, PMA-differentiated to macrophage-like cells
Knock-down reagent: siRNA pool against human genes, 50 nM
Duration: LPS for 4 h, given about 3 days after siRNA transfection
Challenge: bacterial LPS (TLR4 ligand), 10 ng/ml
Measurement: 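Ratio of firefly to renilla light, scaled to the plate median and expressed as a robust z-score per replicate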
Reading the numbers: TNF reporter robust z-score: higher = stronger TNF reporter response to LPS
Call rule: 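a well is active when its z-score exceeds 2.8 or falls below -1.5; control wells carry no call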
Shown is an unselected part of about 18,000 reagents. About 2,900 of all reagents (16%) were called active. 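Calls are made per well; low scores hint the gene aids the LPS response, high scores that it dampens it.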 Repeated entries: four replicate wells of each siRNA pool.

Knock-down of AAGAB (GeneID 79719) came out at: TNF reporter robust z-score 1.84; inactive.
Against AAGAB (GeneID 79719), the values are TNF reporter robust z-score 1.13; inactive.
After knock-down of AAGAB (GeneID 79719) the results were TNF reporter robust z-score 0.54; inactive.
Silencing of AAGAB (GeneID 79719) gave: TNF reporter robust z-score 2.17; inactive.
With knock-down of GSDMA (GeneID 284110), the screen gave TNF reporter robust z-score -0.47; inactive.
Against GSDMA (GeneID 284110) the deposit lists TNF reporter robust z-score 0.14; inactive.
For GSDMA (GeneID 284110), the values are TNF reporter robust z-score 0.32; inactive.
GSDMA (GeneID 284110) scored TNF reporter robust z-score 0.2; inactive.
Silencing of SMG5 (GeneID 23381) came out at: TNF reporter robust z-score 1.55; inactive.
With knock-down of SMG5 (GeneID 23381), the record shows TNF reporter robust z-score 2.99; active.
For SMG5 (GeneID 23381), the entry reads TNF reporter robust z-score 2.14; inactive.
After knock-down of SMG5 (GeneID 23381), the screen gave TNF reporter robust z-score 1.65; inactive.
With knock-down of TCTN1 (GeneID 79600), the screen gave TNF reporter robust z-score 0.1; inactive.
Knock-down of TCTN1 (GeneID 79600) gave: TNF reporter robust z-score 0.08; inactive.
Against TCTN1 (GeneID 79600) the deposit lists TNF reporter robust z-score -0.47; inactive.
TCTN1 (GeneID 79600) scored TNF reporter robust z-score -0.61; inactive.
Against MRGPRX1 (GeneID 259249) the deposit lists TNF reporter robust z-score 2.52; inactive.
Depletion of MRGPRX1 (GeneID 259249) gave: TNF reporter robust z-score 2.7; inactive.
Against MRGPRX1 (GeneID 259249), the values are TNF reporter robust z-score 0.4; inactive.
For MRGPRX1 (GeneID 259249), the values are TNF reporter robust z-score 1.4; inactive.
Knock-down of NTSR2 (GeneID 23620) came out at: TNF reporter robust z-score 0.18; inactive.
Silencing of NTSR2 (GeneID 23620) gave: TNF reporter robust z-score -0.04; inactive.
Against NTSR2 (GeneID 23620), the values are TNF reporter robust z-score -0.16; inactive.
Against NTSR2 (GeneID 23620), the values are TNF reporter robust z-score 0.09; inactive.
ESYT1 (GeneID 23344) gave TNF reporter robust z-score 1.04; inactive.
After knock-down of ESYT1 (GeneID 23344), the screen gave TNF reporter robust z-score 0.89; inactive.
Depletion of ESYT1 (GeneID 23344) resulted in: TNF reporter robust z-score 0.22; inactive.
After knock-down of ESYT1 (GeneID 23344), the screen gave TNF reporter robust z-score -0.39; inactive.

Records above whose gene name starts with A or a (4):
AAGAB (GeneID 79719): TNF reporter robust z-score = 1.84; outcome = inactive
AAGAB (GeneID 79719): TNF reporter robust z-score = 1.13; outcome = inactive
AAGAB (GeneID 79719): TNF reporter robust z-score = 0.54; outcome = inactive
AAGAB (GeneID 79719): TNF reporter robust z-score = 2.17; outcome = inactive

The results go on:
PPEF2 (GeneID 5470) showed TNF reporter robust z-score 0.12; inactive.
With knock-down of PPEF2 (GeneID 5470), the screen gave TNF reporter robust z-score -1.07; inactive.
PPEF2 (GeneID 5470) scored TNF reporter robust z-score 0.19; inactive.
Knock-down of PPEF2 (GeneID 5470) resulted in: TNF reporter robust z-score -1.1; inactive.
ZFP36L1 (GeneID 677) gave TNF reporter robust z-score 0.62; inactive.
For ZFP36L1 (GeneID 677) the deposit lists TNF reporter robust z-score -0.09; inactive.
ZFP36L1 (GeneID 677) showed TNF reporter robust z-score -0.48; inactive.
For ZFP36L1 (GeneID 677) the deposit lists TNF reporter robust z-score 0.31; inactive.
Against SLC43A3 (GeneID 29015) the deposit lists TNF reporter robust z-score 0.21; inactive.
SLC43A3 (GeneID 29015) scored TNF reporter robust z-score -0.24; inactive.
SLC43A3 (GeneID 29015) scored TNF reporter robust z-score -0.83; inactive.
SLC43A3 (GeneID 29015) gave TNF reporter robust z-score -0.16; inactive.
Knock-down of TMEM69 (GeneID 51249) resulted in: TNF reporter robust z-score -1.29; inactive.
TMEM69 (GeneID 51249) scored TNF reporter robust z-score -0.29; inactive.
After knock-down of TMEM69 (GeneID 51249), the record shows TNF reporter robust z-score -0.85; inactive.
Knock-down of TMEM69 (GeneID 51249) resulted in: TNF reporter robust z-score 0.06; inactive.
Knock-down of INPP5E (GeneID 56623) came out at: TNF reporter robust z-score 0.88; inactive.
Against INPP5E (GeneID 56623) the deposit lists TNF reporter robust z-score 0.16; inactive.
INPP5E (GeneID 56623) gave TNF reporter robust z-score -0.19; inactive.
Against INPP5E (GeneID 56623), the entry reads TNF reporter robust z-score -0.14; inactive.
